The source of these data is PubChem BioAssay AID2685 (National Center for Advancing Translational Sciences (NCATS), 2010).

Each structure is given as a SMILES string. Some of the results follow. Shown are side measurements of this screen, not its main read-out; they come without a call. Compounds called inactive in the main read-out are mostly missing here. Potencies come from curve fits of mixed quality, noted in brackets.

The assay in a line: qHTS Assay for Lipid Storage Modulators in Drosophila S3 Cells.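 As to cell number change: cells counted by Cell Tracker Red CMTPX staining in the red channel.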 The settings on record: BODIPY lipid droplet fluorescence, 18-24 h; for cell number change: measured here: cell count max response, cells fed with added oleic acid. A digest of the protocol:
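Drosophila S3 cells got compounds at several concentrations plus oleic acid (400 uM solution). Laser-scanning cytometry with 488 nm excitation read lipid droplets at 500-530 nm and cells at 575-640 nm. Percent activity was relative to 20 uM Triacsin C.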
A general note: qHTS replaces the single test concentration by a dilution series.

The mark [1] stands for this setting: measured here: cell number channel AC50, cells fed with added oleic acid.
Setting [2] is: measured here: lipid fluorescence (Fed channel) AC50, cells fed with added oleic acid.

One may read the AC50 as the concentration giving half of the maximal activity seen. Low values mean activity at low concentration, high ones activity only at high concentration. With `C=CCn1c(C)cc(C(=O)COC(=O)/C=C/c2c(C)nn(C3CCS(=O)(=O)C3)c2Cl)c1C` (stereo not drawn), the cell number change stood at 21.5%. Under setting [1], the AC50 is 1.84 µM [rising, full curve, poor fit].

Turning to `COc1cccc(CC(=O)Nc2ccc(S(=O)(=O)Nc3nc(C)cc(C)n3)cc2)c1`, the cell number change was -39.5%. In addition, under setting [2], the AC50 is 32.6 µM [falling, partial curve, poor fit].

Consider `CC(=O)c1cccc(NC(=O)N2C3CCCC2CC(NC(=O)C2CC2)C3)c1` (stereo not drawn), for which the cell number change amounted to 15%.

For `COc1ccc(C(=O)OC(C)C(=O)NC(C)CCc2ccccc2)cc1[N+](=O)[O-]` (stereo not drawn), the cell number change worked out at 37.8%. The half-maximal activity concentration (AC50) under setting [1] is 25.9 µM [rising, single point].

Consider `CN(CCOC(=O)/C=C/c1ccco1)Cc1ccccc1`, for which the cell number change was determined as 3.06%. The half-maximal activity concentration (AC50) under setting [2] is 6.51 µM [falling, single point].

As for `CCCn1c(SCC(=O)Nc2ccc3c(c2)OCCO3)nnc1-c1ccco1`, the cell number change was -18.2%. Besides, the half-maximal activity concentration (AC50) under setting [2] is 0.00461 µM [rising, full curve, poor fit].

Regarding `COc1ccc(O[C@H]2C=C[C@@H](c3ccccc3)O[C@@H]2COC(=O)CC/C(C)=N/OC[C@@H](O)[C@H]2O[C@@H]3OC(C)(C)O[C@@H]3[C@H]2O)cc1`, the half-maximal activity concentration (AC50) under setting [2] is 20.6 µM [rising, partial curve].

Regarding `CCCCC(=O)NC(Nc1nc(C2CC2)cs1)(C(=O)OCC)C(F)(F)F` (stereo not drawn), the cell number change is -68.9%. Moreover, under setting [1], the AC50 is 5.17 µM [falling, partial curve]. Moreover, the AC50 under setting [2] was 6.51 µM [falling, partial curve].

Take `O=C(CN(Cc1ccccc1F)C(=O)Cn1nnc(-c2cccs2)n1)NCC1CCCO1` (stereo not drawn): the cell number change was -34.2%. Also, the AC50 under setting [1] is 29.1 µM [falling, single point].

`O=C(Nc1ccncc1NC(=O)c1cccc([N+](=O)[O-])c1)c1cccc([N+](=O)[O-])c1`: the cell number change stood at 41.1%. Further, the AC50 under setting [1] was 0.58 µM [rising, full curve]. Moreover, under setting [2], the AC50 is 5.8 µM [rising, full curve, poor fit].

Turning to `O=C(NCc1ccccc1)c1cc(=O)c2ccccc2o1`, the cell number change is -17.6%.

For `Cc1ccc(/C=C/c2nc3ccccc3c(=O)n2CCc2ccccc2)cc1`, the cell number change worked out at 14.8%. For the same compound, the AC50 under setting [2] is 0.146 µM [rising, full curve, poor fit].

`COc1ccc(-c2cc(C)no2)cc1S(=O)(=O)N1CCOc2ccc(Cl)cc21`: the cell number change turned out to be 66.9%. In addition, the concentration at half-maximal activity (AC50) under setting [1] was 29.1 µM [rising, single point].

In the case of `CC(C)OCCCNS(=O)(=O)c1ccc2c(c1)oc(=O)n2C`, the cell number change was found to be 3.52%. In addition, the AC50 under setting [2] was 1.64 µM [falling, partial curve].

As to `CCCCOc1cc(C)nc(NCc2ccccc2)n1`, the cell number change was -36.9%. The concentration at half-maximal activity (AC50) under setting [1] is 1.84 µM [falling, full curve]. Further, the half-maximal activity concentration (AC50) under setting [2] is 20.6 µM [falling, partial curve].

Regarding `COc1ccc2c(c1)c1nnc(SC)nc1n2C`, the cell number change came out at 23.9%. Besides, the AC50 under setting [1] is 0.731 µM [rising, full curve, poor fit].

For `O=C(NCc1ccc(Cl)cc1)c1cccc2c1C(=O)N(CC1CCCO1)C2` (stereo not drawn), the cell number change is -14.1%.

For `COc1ccc(-c2nc(=S)n3ccsc3n2)cc1OC`, the cell number change is 4%. Moreover, the half-maximal activity concentration (AC50) under setting [1] is 0.164 µM [rising, full curve].

On to `NC(=O)c1ccc[n+](CC(=O)c2ccc(Cl)c(Cl)c2)c1`, for which the cell number change was found to be 96.5%. For the same compound, the AC50 under setting [1] was 10.3 µM [rising, partial curve].

For the compound `CC(C)c1ccc(NC(=O)CN2C(=O)COc3ccc(S(=O)(=O)N4CCOCC4)cc32)cc1`, the AC50 under setting [2] was 5.17 µM [rising, single point].

In the case of `CNC(=O)C1C2C=CC3(O2)C1C(=O)N(C1CC1)C3C(=O)NCc1ccc(OC)cc1` (stereo not drawn), the half-maximal activity concentration (AC50) under setting [2] was 5.17 µM [falling, partial curve].

Turning to `CC(C)COc1ccc(CNC(=S)N/N=C/c2ccc([N+](=O)[O-])cc2)cc1`, the cell number change is -30.6%. Besides, the AC50 under setting [1] was 4.11 µM [falling, full curve, poor fit]. Further, the AC50 under setting [2] is 14.6 µM [falling, partial curve].

With `CC(OC(=O)c1ccc(NC(=O)CC#N)cc1)C(=O)Nc1ccc2c(c1)OCCO2` (stereo not drawn), the cell number change worked out at 11.4%. In addition, the half-maximal activity concentration (AC50) under setting [2] was 1.64 µM [rising, partial curve, poor fit].

For the compound `CCSC1=C(C#N)C(c2ccc(Cl)cc2)C2=C(CCCC2=O)N1` (stereo not drawn), the cell number change was 10.5%. Moreover, under setting [1], the concentration at half-maximal activity (AC50) is 1.46 µM [rising, partial curve]. In addition, the AC50 under setting [2] is 11.6 µM [rising, partial curve, poor fit].

For the compound `COc1cccc(-n2c(SCC(N)=O)nc3ccccc3c2=O)c1`, the cell number change is -4.15%. For the same compound, the AC50 under setting [1] is 0.092 µM [falling, full curve, poor fit].

Turning to `CCCS(=O)(=O)N1CCC(C(=O)NCCN2CCCC2)CC1`, the cell number change is -134%. Moreover, the AC50 under setting [1] is 16.4 µM [falling, partial curve]. Further, under setting [2], the AC50 was 16.4 µM [falling, partial curve].

As for `CCOc1cc(/C=N\NC(N)=O)cc(Br)c1OC(C)C`, the cell number change worked out at 8.11%. Also, the concentration at half-maximal activity (AC50) under setting [2] was 0.082 µM [rising, partial curve, poor fit].

For the compound `Cc1ccc(/C=N/NC(=O)c2csc3c2CCCC3)cc1`, the half-maximal activity concentration (AC50) under setting [2] was 29.1 µM [falling, single point].

For `CC1=NN(C(=O)Cc2ccc([N+](=O)[O-])cc2)C(O)(c2cccnc2)C1` (stereo not drawn), the cell number change is -24%. The concentration at half-maximal activity (AC50) under setting [2] was 0.116 µM [rising, full curve, poor fit].

Consider `CC(=O)Nc1ccc(S(=O)(=O)N(C)CC(=O)N/N=C/c2cccc(O)c2)cc1`, for which the cell number change is 5.51%. Under setting [2], the AC50 is 16.4 µM [rising, single point].

As to `COCCn1c(N)c(C(=O)NCc2cccs2)c2nc3ccccc3nc21`, the cell number change is -48.1%. The concentration at half-maximal activity (AC50) under setting [1] is 16.4 µM [falling, single point]. For the same compound, the AC50 under setting [2] is 0.13 µM [rising, partial curve, poor fit].

Turning to `Cc1nc2ccccc2cc1C(=O)N(C)Cc1ccccc1`, the cell number change was determined as 1.35%. For the same compound, the concentration at half-maximal activity (AC50) under setting [2] is 0.231 µM [rising, full curve].

For `COc1ccccc1CNS(=O)(=O)c1ccc(-c2cc(C)no2)cc1`, the cell number change stood at 8.49%. Besides, the AC50 under setting [2] is 3.26 µM [rising, single point].

Take `Cc1ccc(-c2c3c(=O)n(C)c(=O)n(C)c3cn2N2CCOCC2)cc1`: the cell number change came out at 17.8%.

For the compound `COc1ccc2oc(=N)c(C(=O)Nc3cccc(C)c3C)cc2c1`, the cell number change came out at 12.3%. The AC50 under setting [2] is 29.1 µM [rising, single point].

As for `CCCC1=Nc2cc(C(=O)NCCCOCC)ccc2Sc2ccccc21`, the cell number change was 2.58%.

With `O=C(N/N=C/c1ccc([N+](=O)[O-])o1)c1cccc(S(=O)(=O)N2CCOCC2)c1`, the cell number change was -50.2%. Also, the AC50 under setting [1] is 13 µM [falling, partial curve, poor fit]. Further, under setting [2], the concentration at half-maximal activity (AC50) was 6.51 µM [falling, full curve].
